# In PubChem BioAssay (NCATS):
# Inconclusive results, whose numbers are uncertain, are shown with a selection of clear calls. For some assays here: Where the call is inconclusive, the potency comes from a doubtful curve fit. Calls of active or inactive are those of the source. Calls follow the shape of the dose curve; as a rule, active = well fitted curve in the direction sought with a large enough effect; inconclusive = small, poorly fitted or top-dose-only effect, or another doubt; inactive = no such curve, though single readings can be large; an effect the other way counts as inactive or inconclusive.
# Tests used:
# [1] = Quantitative High-Throughput drug screen in 47 multiple myeloma cell lines against the NCATS MIPE library collection: KHM11_PLB cell viability assay (AID 1918962); conditions: KHM11 myeloma cell viability, CellTiter-Glo ATP luminescence, 48 h; viability, % of DMSO control: at 45.8 µM (top of the series); also: nearly all actives have a fitted effect of over 35% in size; also: potency is read from the fitted curve at half-maximal effect
# Summary of the method: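 Luminescent ATP measurement with CellTiter-Glo gives viability, scaled between DMSO-only wells (100%) and media-only wells (0%). Cells, 500 per well, faced library compounds for 48 hours at 37C.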
# [2] = Quantitative High-Throughput drug screen in 47 multiple myeloma cell lines against the NCATS MIPE library collection: JIM1_ECACC cell viability assay (AID 1918964; also: potency is read from the fitted curve at half-maximal effect); conditions: JIM1 myeloma viability, CellTiter-Glo ATP luminescence, 48 h; viability (% of DMSO): at 45.8 µM (top of the series)
# Summary of the method: (§1)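 Steps: seed 500 cells per well; pin-transfer MIPE 4.0 library; incubate 48 h at 37C, 5% CO2, humidified; add CellTiter-Glo, 5 min room temperature; read luminescence.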
# [3] = Quantitative High-Throughput drug screen in 47 multiple myeloma cell lines against the NCATS MIPE library collection: INA6_PLB cell viability assay (AID 1918965; also: nearly all actives have a fitted effect of over 55% in size; also: potency is read from the fitted curve at half-maximal effect); conditions: INA6 myeloma viability, CellTiter-Glo ATP luminescence, 48 h; viability (% of control): at 45.8 µM (top of the series)
# Summary of the method: as §1
# [4] = Quantitative High-Throughput drug screen in 47 multiple myeloma cell lines against the NCATS MIPE library collection: JJN3_DSMZ cell viability assay (AID 1918966; also: nearly all actives have a fitted effect of over 50% in size; also: potency is read from the fitted curve at half-maximal effect)
# Summary of the method: as §1
# [5] = Quantitative High-Throughput drug screen in 47 multiple myeloma cell lines against the NCATS MIPE library collection: Karpas25_ECACC cell viability assay (AID 1918968; also: potency is read from the fitted curve at half-maximal effect; nearly all actives have a fitted effect of over 35% in size)
# Summary of the method: as §1
# [6] = Quantitative High-Throughput drug screen in 47 multiple myeloma cell lines against the NCATS MIPE library collection: KMS27_JCRB cell viability assay (AID 1918970); conditions: KMS27 myeloma cells, CellTiter-Glo ATP viability, 48 h; viability (% of DMSO): at 45.8 µM (top of the series); also: nearly all actives have a fitted effect of over 30% in size
# Summary of the method: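 CellTiter-Glo luminescence after 48 h drug exposure at 37 °C; 500 cells/well, 1536-well format, pin-tool compound addition; DMSO = 100%, media-only = 0% viability.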
# [7] = Quantitative High-Throughput drug screen in 47 multiple myeloma cell lines against the NCATS MIPE library collection: KMS12BM_JCRB cell viability assay (AID 1918971); also: nearly all actives have a fitted effect of over 35% in size; also: potency is read from the fitted curve at half-maximal effect
# Summary of the method: (§2)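 We plated 500 myeloma cells per well, pinned in MIPE 4.0 compounds, and incubated for 48 hours at 37C. ATP was then quantified with CellTiter-Glo, with DMSO and media-only wells defining 100% and 0%.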
# [8] = Quantitative High-Throughput drug screen in 47 multiple myeloma cell lines against the NCATS MIPE library collection: KMS20_JCRB cell viability assay (AID 1918973); conditions: CellTiter-Glo ATP, 48 h; viability (% of DMSO): at 45.8 µM (top of the series); also: nearly all actives have a fitted effect of over 45% in size; also: potency is read from the fitted curve at half-maximal effect
# Summary of the method: as §1
# [9] = Quantitative High-Throughput drug screen in 47 multiple myeloma cell lines against the NCATS MIPE library collection: KMS26_JCRB cell viability assay (AID 1918975); conditions: KMS26 myeloma cells viability, CellTiter-Glo ATP, 48 h; viability (% of DMSO): at 45.8 µM (top of the series); also: potency is read from the fitted curve at half-maximal effect; nearly all actives have a fitted effect of over 45% in size
# Summary of the method: as §2
# [10] = Quantitative High-Throughput drug screen in 47 multiple myeloma cell lines against the NCATS MIPE library collection: MMM1_PLB cell viability assay (AID 1918976); also: nearly all actives have a fitted effect of over 35% in size; also: potency is read from the fitted curve at half-maximal effect
# Summary of the method: (§3)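 Inhibition of viability over 48 h was scored by ATP content (CellTiter-Glo) in 500-cell wells. Zero and full viability were defined by media-only and DMSO-only wells.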
# [11] = Quantitative High-Throughput drug screen in 47 multiple myeloma cell lines against the NCATS MIPE library collection: MOLP8_DSMZ cell viability assay (AID 1918977); also: nearly all actives have a fitted effect of over 45% in size; also: potency is read from the fitted curve at half-maximal effect
# Summary of the method: as §3
# [12] = Quantitative High-Throughput drug screen in 47 multiple myeloma cell lines against the NCATS MIPE library collection: NCIH929_DSMZ cell viability assay (AID 1918978); conditions: NCI-H929 myeloma viability, CellTiter-Glo ATP, 48 h; viability, % of control: at 45.8 µM (top of the series); also: nearly all actives have a fitted effect of over 35% in size; also: potency is read from the fitted curve at half-maximal effect
# Summary of the method: as §3
# [13] = Quantitative High-Throughput drug screen in 47 multiple myeloma cell lines against the NCATS MIPE library collection: OCIMY1_PLB cell viability assay (AID 1918979); also: nearly all actives have a fitted effect of over 35% in size; also: potency is read from the fitted curve at half-maximal effect
# Summary of the method: as §3
# [14] = Quantitative High-Throughput drug screen in 47 multiple myeloma cell lines against the NCATS MIPE library collection: MM1S_ATCC cell viability assay (AID 1918980); also: nearly all actives have a fitted effect of over 45% in size; also: potency is read from the fitted curve at half-maximal effect
# Summary of the method: as §3
# [15] = Quantitative High-Throughput drug screen in 47 multiple myeloma cell lines against the NCATS MIPE library collection: KMS12PE_JCRB cell viability assay (AID 1918972); conditions: KMS12PE myeloma viability, CellTiter-Glo ATP, 48 h; viability: at 45.8 µM (top of the series); also: potency is read from the fitted curve at half-maximal effect; nearly all actives have a fitted effect of over 30% in size
# Summary of the method: as §1
# [16] = Quantitative High-Throughput drug screen in 47 multiple myeloma cell lines against the NCATS MIPE library collection: KMS21BM_JCRB cell viability assay (AID 1918974); conditions: ATP luminescence, 48 h; viability: at 45.8 µM (top of the series); also: potency is read from the fitted curve at half-maximal effect
# Summary of the method: as §1
# [17] = Quantitative High-Throughput drug screen in 47 multiple myeloma cell lines against the NCATS MIPE library collection: MM1R_ATCC cell viability assay (AID 1918981); also: nearly all actives have a fitted effect of over 35% in size; also: potency is read from the fitted curve at half-maximal effect
# Summary of the method: as §3
# [18] = Quantitative High-Throughput drug screen in 47 multiple myeloma cell lines against the NCATS MIPE library collection: Karpas417_ECACC cell viability assay (AID 1918961); conditions: Karpas417 myeloma viability, CellTiter-Glo ATP luminescence, 48 h; viability (% of DMSO): at 45.8 µM (top of the series); also: potency is read from the fitted curve at half-maximal effect
# Summary of the method: as §1
# [19] = Quantitative High-Throughput drug screen in 47 multiple myeloma cell lines against the NCATS MIPE library collection: H1112_PLB cell viability assay (AID 1918967; also: nearly all actives have a fitted effect of over 30% in size)
# Summary of the method: as §1
compound,measurement,setting,value
COC(=O)[C@@H](N)CCCN=C(N)N[N+](=O)[O-],Potency,[1],"inconclusive: 1.32 µM [rising, full curve]"
same,Potency,[2],inactive
same,Potency,[3],"inconclusive: 0.0017 µM [rising, full curve, poor fit]"
same,Potency,[4],"inconclusive: 0.105 µM [rising, full curve, poor fit]"
same,Potency,[5],"inconclusive: 0.118 µM [rising, full curve, poor fit]"
same,Potency,[6],inactive
same,Potency,[7],inconclusive: 0.001 µM
same,Potency,[8],"inconclusive: 0.0066 µM [rising, full curve, poor fit]"
same,Potency,[9],"inconclusive: 29.6 µM [rising, single point]"
same,Potency,[10],"inconclusive: 0.0015 µM [rising, full curve, poor fit]"
same,Potency,[11],inactive
same,Potency,[12],inactive
same,Potency,[13],"inconclusive: 0.0047 µM [rising, full curve, poor fit]"
same,Potency,[14],inactive
COC[C@@H](NC(C)=O)C(=O)NCc1ccccc1,Potency,[1],"inconclusive: 0.003 µM [rising, full curve, poor fit]"
same,Potency,[2],"inconclusive: 0.526 µM [rising, full curve, poor fit]"
same,Potency,[3],"inconclusive: 0.332 µM [rising, full curve, poor fit]"
same,Potency,[4],inactive
same,Potency,[5],inconclusive: 0.001 µM
same,Potency,[15],"inconclusive: 0.0017 µM [rising, full curve, poor fit]"
same,Potency,[8],inactive
same,Potency,[16],"inconclusive: 7.43 µM [rising, single point]"
same,Potency,[9],"inconclusive: 5.9 µM [rising, partial curve, poor fit]"
same,Potency,[10],"inconclusive: 7.43 µM [rising, partial curve, poor fit]"
same,Potency,[11],inactive
same,Potency,[14],"inconclusive: 33.2 µM [cytotoxic, single point]"
same,Potency,[17],inactive
N[C@@H](Cc1ccc(N(CCCl)CCCl)cc1)C(=O)O,Potency,[18],active: 2.96 µM
same,Potency,[2],active: 10.5 µM
same,Potency,[8],"inconclusive: 3.72 µM [cytotoxic, full curve, poor fit]"
same,Potency,[16],"inconclusive: 3.32 µM [cytotoxic, full curve, poor fit]"
same,Potency,[11],active: 5.9 µM
same,Potency,[13],active: 16.6 µM
CNC(=O)c1ccc(N2C(=S)N(c3ccc(C#N)c(C(F)(F)F)c3)C(=O)C23CCC3)cc1F,Potency,[2],"inconclusive: 18.7 µM [cytotoxic, partial curve, poor fit]"
same,Potency,[3],active: 16.6 µM
same,Potency,[4],"inconclusive: 29.6 µM [cytotoxic, single point]"
same,Potency,[7],"inconclusive: 23.5 µM [cytotoxic, single point]"
same,Potency,[8],active: 8.33 µM
same,Potency,[16],"inconclusive: 23.5 µM [cytotoxic, partial curve, poor fit]"
same,Potency,[9],active: 18.7 µM
same,Potency,[10],"inconclusive: 0.0105 µM [rising, full curve, poor fit]"
same,Potency,[11],"inconclusive: 1.18 µM [rising, partial curve, poor fit]"
same,Potency,[13],inactive
COc1ccc(C(=O)c2c(C)n(CCN3CCOCC3)c3cc(I)ccc23)cc1,Potency,[1],inactive
same,Potency,[2],active: 11.8 µM
same,Potency,[3],active: 8.33 µM
same,Potency,[4],"inconclusive: 16.6 µM [cytotoxic, partial curve, poor fit]"
same,Potency,[7],active: 23.5 µM
same,Potency,[8],active: 5.26 µM
same,Potency,[9],"inconclusive: 33.2 µM [cytotoxic, single point]"
same,Potency,[10],"inconclusive: 20.9 µM [cytotoxic, partial curve, poor fit]"
same,Potency,[11],"inconclusive: 33.2 µM [cytotoxic, partial curve, poor fit]"
same,Potency,[12],"inconclusive: 37.2 µM [cytotoxic, single point]"
same,Potency,[13],"inconclusive: 23.5 µM [cytotoxic, single point]"
same,Potency,[14],inactive
same,Potency,[17],"inconclusive: 23.5 µM [cytotoxic, single point]"
CC(=Cc1csc(C)n1)[C@@H]1C[C@H]2O[C@]2(C)CCC[C@H](C)[C@@H](O)[C@@H](C)C(=O)C(C)(C)[C@@H](O)CC(=O)O1,Potency,[1],inactive
same,viability (% of DMSO),[2],inconclusive: 32% [cytotoxic]
same,Potency,[3],inactive
same,Potency,[4],inactive
same,Potency,[19],inactive
same,viability (% of DMSO),[6],inconclusive: 53% [cytotoxic]
same,Potency,[7],inactive
same,Potency,[15],"inconclusive: 0.0012 µM [cytotoxic, full curve]"
same,Potency,[8],"inconclusive: 16.6 µM [rising, partial curve, poor fit]"
same,viability,[16],active: 80.2%
same,Potency,[9],"inconclusive: 0.0026 µM [cytotoxic, full curve, poor fit]"
same,Potency,[10],inactive
same,Potency,[11],inactive
same,Potency,[14],inactive
same,Potency,[17],"inconclusive: 20.9 µM [rising, partial curve, poor fit]"

# Quoted at random: 3 entries already listed
compound,measurement,setting,value
CC(=Cc1csc(C)n1)[C@@H]1C[C@H]2O[C@]2(C)CCC[C@H](C)[C@@H](O)[C@@H](C)C(=O)C(C)(C)[C@@H](O)CC(=O)O1,Potency,[3],inactive
N[C@@H](Cc1ccc(N(CCCl)CCCl)cc1)C(=O)O,Potency,[18],active: 2.96 µM
CC(=Cc1csc(C)n1)[C@@H]1C[C@H]2O[C@]2(C)CCC[C@H](C)[C@@H](O)[C@@H](C)C(=O)C(C)(C)[C@@H](O)CC(=O)O1,Potency,[15],"inconclusive: 0.0012 µM [cytotoxic, full curve]"
